{
  "sequences": {"note": "Chains of the proteins cited; added tags and fusions are not shown.", "UniProt Q13546": "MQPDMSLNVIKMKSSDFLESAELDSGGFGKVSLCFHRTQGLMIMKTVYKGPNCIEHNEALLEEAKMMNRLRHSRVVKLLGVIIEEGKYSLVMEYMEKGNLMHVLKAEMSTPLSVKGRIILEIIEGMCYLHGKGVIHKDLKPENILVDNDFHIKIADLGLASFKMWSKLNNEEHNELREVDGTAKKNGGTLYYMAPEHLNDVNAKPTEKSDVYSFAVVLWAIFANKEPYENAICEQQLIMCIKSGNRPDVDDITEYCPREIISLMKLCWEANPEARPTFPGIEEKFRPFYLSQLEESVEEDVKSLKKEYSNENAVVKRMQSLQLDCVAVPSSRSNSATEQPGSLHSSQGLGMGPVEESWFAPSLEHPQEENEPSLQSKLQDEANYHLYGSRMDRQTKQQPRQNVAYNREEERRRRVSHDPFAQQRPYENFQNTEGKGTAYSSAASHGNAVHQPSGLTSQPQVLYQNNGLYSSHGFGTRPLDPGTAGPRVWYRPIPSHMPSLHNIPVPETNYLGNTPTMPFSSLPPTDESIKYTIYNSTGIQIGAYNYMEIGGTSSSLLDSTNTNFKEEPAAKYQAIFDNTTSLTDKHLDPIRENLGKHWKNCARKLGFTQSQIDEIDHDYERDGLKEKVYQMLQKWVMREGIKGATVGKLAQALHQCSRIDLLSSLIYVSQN"},
  "source": "paper PMC5037431",
  "binders": {"B1": {"name": "Jumonji domain-containing protein 8 (JMJD8) (protein, UniProt Q96S16 24-264)", "chain": "EGDGGWRPGGPGAVAEEERCTVERRADLTYAEFVQQYAFVRPVILQGLTDNSRFRALCSRDRLLASFGDRVVRLSTANTYSYHKVDLPFQEYVEQLLHPQDPTSLGNDTLYFFGDNNFTEWASLFRHYSPPPFGLLGTAPAYSFGIAGAGSGVPFHWHGPGYSEVIYGRKRWFLYPPEKTPEFHPNKTTLAWLRDTYPALPPSARPLECTIRAGEVLYFPDRWWHATLNLDTSVFISTFLG"}},
  "target": "RIP1 (UniProt Q13546)",
  "test": "co-IP; HEK293T cells transfected with RIP1 and JMJD8 constructs; IPKA lysis buffer; 500 μg total protein immunoprecipitated with anti-c-Myc, FLAG or mouse IgG antibody and protein A/G beads overnight at 4 °C; 4 washes; immunoblot",
  "note": "Results are given in words; binding and its absence hold for the method and conditions named. In cells and extracts the contact can be indirect.",
  "data": [
    {"binder": "B1", "values": [
      {"measurement": "binding", "value": "no binding"}
    ]}
  ]
}
